Test: Soil column migration of Imidacloprid (Example 24 Part B)
Settings: for Total amount of active in column: sum of three sections

Compound | Amount of active per weight of sand (Lower section) [mg/g × 100] | Amount of active (Lower section of sand column) [mg] | Amount of active per weight of sand (Middle section) [mg/g × 100] | Amount of active (Middle section of sand column) [mg] | Amount of active per weight of sand (Top section) [mg/g × 100] | Amount of active (Top section of sand column) [mg] | Total amount of active in column [mg]
CCC(COCC(O)CN(CCO)CCO)(COCC(O)CN(CCO)CCO)COCC(O)CN(CCO)CCO (centres unmarked) [Example 2, [(C)=TMPTGE; (FF)=Et; (IF1)=OH; (BR1)=DEA; (TF)=OH; G=1]] | 0.90 | 1.9 | 0.73 | 1.7 | 0.65 | 1.4 | 5.0
CCC(COCC(O)CN(CC(=O)[O-])CC(=O)[O-])(COCC(O)CN(CC(=O)[O-])CC(=O)[O-])COCC(O)CN(CC(=O)[O-])CC(=O)[O-].[Na+].[Na+].[Na+].[Na+].[Na+].[Na+] (centres unmarked) [Example 10, [(C)=TMPTGE; (FF)=Et; (IF1)=OH; (BR1)=IDA; (TF)=CO2Na; G=1]] | 0.60 | 1.15 | 0.53 | 1.2 | 1.09 | 2.3 | 4.65
CCC(COCC(O)CN(CC(=O)[O-])CC(=O)[O-])(COCC(O)CN(CC(=O)[O-])CC(=O)[O-])COCC(O)CN(CC(=O)[O-])CC(=O)[O-].CCCC[N+](CCCC)(CCCC)CCCC.CCCC[N+](CCCC)(CCCC)CCCC.CCCC[N+](CCCC)(CCCC)CCCC.CCCC[N+](CCCC)(CCCC)CCCC.CCCC[N+](CCCC)(CCCC)CCCC.CCCC[N+](CCCC)(CCCC)CCCC (centres unmarked) [Example 12, [(C)=TMPTGE; (FF)=Et; (IF1)=OH; (BR1)=IDA; (TF)=CO2NBu4; G=1]] | 0.83 | 1.85 | 0.39 | 0.9 | 0.97 | 1.9 | 4.65
CCC(COCC(O)CN(CCN)CCN)(COCC(O)CN(CCN)CCN)COCC(O)CN(CCN)CCN (centres unmarked) [Example 14, [(C)=TMPTGE; (IF1)=OH; (BR1)=DETA; (TF)=Primary NH2; G=1]] | 0.87 | 1.8 | 0.75 | 1.7 | 0.56 | 1.2 | 4.7
O=[N+]([O-])NC1=NCCN1Cc1ccc(Cl)nc1 [Imidacloprid, reference compound] | 0.18 | 0.4 | 0.95 | 2.2 | 1.15 | 2.5 | 5.1

Reference: US9585387B1, “PEHAM dendrimers for use in agriculture” (Starpharma Pty Ltd, priority 2009, dated 2017)
